Assay [1] concerns the target NOTCH1 (human) (UniProt P46531). Kind of assay: antibody interaction array (~400 antibodies) with AML blast lysate plus rEGFL7, detected with anti-EGFL7-HRP against anti-GST-HRP control.
The target is the same in assay [2]. Kind of assay: antibody interaction array with AML blast lysate plus rEGFL7.
A further assay has as its target NOTCH3 (human) (UniProt Q9UM47). Kind of assay: co-immunoprecipitation, Kasumi-1 cell lysate, immunoblot.

Sequences of proteins named here, by UniProt entry; tags and fusion partners are left off. Residues count along the entry.
UniProt P46531, residues 19-2555: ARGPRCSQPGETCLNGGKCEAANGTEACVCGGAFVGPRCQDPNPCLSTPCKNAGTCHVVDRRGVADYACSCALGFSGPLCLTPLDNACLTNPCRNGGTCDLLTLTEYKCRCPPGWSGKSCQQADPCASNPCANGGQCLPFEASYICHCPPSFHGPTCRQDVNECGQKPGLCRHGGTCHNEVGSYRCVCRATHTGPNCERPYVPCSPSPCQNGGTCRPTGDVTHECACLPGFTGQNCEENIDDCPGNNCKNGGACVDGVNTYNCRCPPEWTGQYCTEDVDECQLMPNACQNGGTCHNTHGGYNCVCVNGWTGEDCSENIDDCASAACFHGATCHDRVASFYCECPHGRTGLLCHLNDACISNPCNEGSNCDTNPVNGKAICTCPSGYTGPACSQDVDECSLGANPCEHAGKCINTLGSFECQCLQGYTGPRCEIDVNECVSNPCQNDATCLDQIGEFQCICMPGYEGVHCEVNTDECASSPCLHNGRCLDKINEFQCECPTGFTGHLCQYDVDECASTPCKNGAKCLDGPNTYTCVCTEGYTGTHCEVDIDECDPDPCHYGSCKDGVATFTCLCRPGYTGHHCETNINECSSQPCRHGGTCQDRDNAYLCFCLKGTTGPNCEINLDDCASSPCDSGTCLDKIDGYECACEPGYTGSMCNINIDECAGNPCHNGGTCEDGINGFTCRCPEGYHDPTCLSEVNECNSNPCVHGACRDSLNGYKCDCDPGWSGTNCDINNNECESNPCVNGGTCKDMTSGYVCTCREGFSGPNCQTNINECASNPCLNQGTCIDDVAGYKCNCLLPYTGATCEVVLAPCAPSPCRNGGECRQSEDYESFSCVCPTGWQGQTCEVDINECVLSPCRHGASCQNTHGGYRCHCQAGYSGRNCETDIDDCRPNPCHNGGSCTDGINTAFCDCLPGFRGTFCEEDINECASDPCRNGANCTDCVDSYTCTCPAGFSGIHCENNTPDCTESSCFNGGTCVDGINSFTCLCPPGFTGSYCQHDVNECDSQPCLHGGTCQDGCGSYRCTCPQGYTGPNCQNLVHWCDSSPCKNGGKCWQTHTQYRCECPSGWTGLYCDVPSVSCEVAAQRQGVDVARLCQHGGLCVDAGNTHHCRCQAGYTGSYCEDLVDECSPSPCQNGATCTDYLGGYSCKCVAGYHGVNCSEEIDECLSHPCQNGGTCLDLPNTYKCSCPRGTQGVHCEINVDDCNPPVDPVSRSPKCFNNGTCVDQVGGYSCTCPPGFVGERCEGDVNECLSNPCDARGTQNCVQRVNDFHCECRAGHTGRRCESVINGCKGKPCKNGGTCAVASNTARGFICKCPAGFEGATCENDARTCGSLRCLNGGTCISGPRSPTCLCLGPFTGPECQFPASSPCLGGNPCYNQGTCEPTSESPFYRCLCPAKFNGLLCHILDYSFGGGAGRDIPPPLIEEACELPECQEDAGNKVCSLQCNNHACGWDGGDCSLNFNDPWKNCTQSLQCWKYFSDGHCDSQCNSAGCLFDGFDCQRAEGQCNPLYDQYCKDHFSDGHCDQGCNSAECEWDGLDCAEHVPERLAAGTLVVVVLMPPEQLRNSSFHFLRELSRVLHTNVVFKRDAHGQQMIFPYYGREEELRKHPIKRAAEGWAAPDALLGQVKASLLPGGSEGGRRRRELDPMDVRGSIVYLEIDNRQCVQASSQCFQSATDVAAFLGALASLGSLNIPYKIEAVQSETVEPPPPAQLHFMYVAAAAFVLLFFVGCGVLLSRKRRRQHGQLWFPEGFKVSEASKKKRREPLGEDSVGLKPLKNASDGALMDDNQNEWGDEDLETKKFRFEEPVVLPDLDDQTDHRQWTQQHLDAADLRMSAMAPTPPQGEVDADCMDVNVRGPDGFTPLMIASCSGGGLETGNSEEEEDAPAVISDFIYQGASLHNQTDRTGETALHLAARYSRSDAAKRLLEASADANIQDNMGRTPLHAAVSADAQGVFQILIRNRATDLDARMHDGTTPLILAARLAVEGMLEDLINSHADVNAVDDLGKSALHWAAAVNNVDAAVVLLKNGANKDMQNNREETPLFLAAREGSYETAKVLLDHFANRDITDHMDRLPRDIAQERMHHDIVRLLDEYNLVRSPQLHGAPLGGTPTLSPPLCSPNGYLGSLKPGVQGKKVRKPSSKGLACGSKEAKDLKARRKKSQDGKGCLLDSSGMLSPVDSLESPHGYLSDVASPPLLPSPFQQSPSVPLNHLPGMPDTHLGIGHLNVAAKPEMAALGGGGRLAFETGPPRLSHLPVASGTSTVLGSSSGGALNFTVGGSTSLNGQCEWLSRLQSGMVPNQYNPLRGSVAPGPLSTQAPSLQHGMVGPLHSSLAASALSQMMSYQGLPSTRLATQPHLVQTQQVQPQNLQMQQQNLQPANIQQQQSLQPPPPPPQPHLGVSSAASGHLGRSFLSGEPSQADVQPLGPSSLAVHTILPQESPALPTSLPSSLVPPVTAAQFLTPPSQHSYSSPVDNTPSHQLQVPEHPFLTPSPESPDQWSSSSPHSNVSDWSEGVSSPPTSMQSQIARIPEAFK
UniProt Q9UM47, residues 40-2321: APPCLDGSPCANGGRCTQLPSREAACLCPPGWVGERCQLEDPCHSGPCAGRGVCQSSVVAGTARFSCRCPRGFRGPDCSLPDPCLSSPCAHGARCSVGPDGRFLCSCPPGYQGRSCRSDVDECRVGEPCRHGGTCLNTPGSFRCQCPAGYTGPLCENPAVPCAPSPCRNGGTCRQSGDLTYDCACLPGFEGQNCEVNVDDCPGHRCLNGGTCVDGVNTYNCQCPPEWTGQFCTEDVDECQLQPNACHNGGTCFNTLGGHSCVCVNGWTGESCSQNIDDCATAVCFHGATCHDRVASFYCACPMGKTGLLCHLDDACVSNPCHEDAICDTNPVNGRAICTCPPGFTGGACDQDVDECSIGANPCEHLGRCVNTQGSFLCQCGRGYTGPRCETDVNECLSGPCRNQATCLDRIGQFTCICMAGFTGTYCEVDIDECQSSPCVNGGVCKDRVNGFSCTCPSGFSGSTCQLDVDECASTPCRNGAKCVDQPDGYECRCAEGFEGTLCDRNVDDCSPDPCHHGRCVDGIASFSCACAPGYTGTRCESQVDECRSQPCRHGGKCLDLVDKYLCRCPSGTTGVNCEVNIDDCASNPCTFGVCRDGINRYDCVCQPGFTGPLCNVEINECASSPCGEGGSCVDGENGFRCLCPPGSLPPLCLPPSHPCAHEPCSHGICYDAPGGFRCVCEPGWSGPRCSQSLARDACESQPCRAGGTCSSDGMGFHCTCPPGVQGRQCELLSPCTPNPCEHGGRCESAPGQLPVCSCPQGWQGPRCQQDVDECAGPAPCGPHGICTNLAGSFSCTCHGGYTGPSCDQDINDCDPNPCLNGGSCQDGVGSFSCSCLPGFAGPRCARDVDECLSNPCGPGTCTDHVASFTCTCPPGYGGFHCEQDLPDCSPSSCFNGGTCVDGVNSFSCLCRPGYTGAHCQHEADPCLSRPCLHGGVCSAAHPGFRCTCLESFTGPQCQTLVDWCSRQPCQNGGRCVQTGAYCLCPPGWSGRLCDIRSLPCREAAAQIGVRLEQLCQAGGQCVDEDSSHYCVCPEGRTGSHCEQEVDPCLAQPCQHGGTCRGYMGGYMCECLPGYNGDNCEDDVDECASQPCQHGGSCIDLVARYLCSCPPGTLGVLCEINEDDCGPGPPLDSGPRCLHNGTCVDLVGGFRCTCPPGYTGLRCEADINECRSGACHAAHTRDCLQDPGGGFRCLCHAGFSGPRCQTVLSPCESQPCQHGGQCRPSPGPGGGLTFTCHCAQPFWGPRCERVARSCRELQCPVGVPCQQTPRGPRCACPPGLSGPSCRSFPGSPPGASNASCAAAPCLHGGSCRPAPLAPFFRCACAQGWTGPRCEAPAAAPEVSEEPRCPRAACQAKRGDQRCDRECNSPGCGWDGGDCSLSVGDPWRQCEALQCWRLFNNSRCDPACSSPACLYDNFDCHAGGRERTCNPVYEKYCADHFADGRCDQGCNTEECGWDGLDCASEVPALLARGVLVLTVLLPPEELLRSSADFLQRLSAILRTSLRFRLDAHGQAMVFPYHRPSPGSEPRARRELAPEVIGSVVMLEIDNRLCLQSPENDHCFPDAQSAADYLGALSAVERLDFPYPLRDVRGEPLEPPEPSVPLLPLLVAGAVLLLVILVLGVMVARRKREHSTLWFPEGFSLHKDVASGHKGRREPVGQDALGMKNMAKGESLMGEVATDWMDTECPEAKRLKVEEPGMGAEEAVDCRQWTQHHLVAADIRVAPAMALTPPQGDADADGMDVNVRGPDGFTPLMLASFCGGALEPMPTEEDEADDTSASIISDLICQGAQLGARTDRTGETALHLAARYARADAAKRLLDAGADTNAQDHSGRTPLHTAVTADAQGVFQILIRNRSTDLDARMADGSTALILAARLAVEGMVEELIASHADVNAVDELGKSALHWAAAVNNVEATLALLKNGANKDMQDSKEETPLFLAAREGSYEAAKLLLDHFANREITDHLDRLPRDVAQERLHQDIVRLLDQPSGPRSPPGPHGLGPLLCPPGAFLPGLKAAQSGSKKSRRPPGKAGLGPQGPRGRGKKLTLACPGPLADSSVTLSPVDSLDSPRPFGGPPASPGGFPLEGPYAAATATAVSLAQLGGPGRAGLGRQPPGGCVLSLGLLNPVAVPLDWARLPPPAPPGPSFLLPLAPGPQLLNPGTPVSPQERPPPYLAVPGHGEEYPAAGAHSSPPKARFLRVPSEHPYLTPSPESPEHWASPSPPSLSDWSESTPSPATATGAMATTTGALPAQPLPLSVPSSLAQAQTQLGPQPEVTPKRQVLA

Results are given in words; binding and its absence hold for the method and conditions named. For part of these data: Binding seen in cells or lysates may run through a third protein. Some binding calls cover weakened binding; strength is not graded here.

B1: recombinant human EGFL7 protein (ligand)
chain: TEHAYRPGRRVCAVRAHGDPVSESFVQRVYQPFLTTCDGHRACSTYRTIYRTAYRRSPGLAPARPRYACCPGWKRTSGLPGACGAAICQPPCRNGGSCVQPGRCRCPAGWRGDTCQSDVDECSARRGGCPQRCVNTAGSYWCQCWEGHSLSADGTLCVPKGGPPRVAPNPTGVDSAMKEEVQRLQSRVDLLEEKLQLVLAPLHSLASQALEHGLPDPGSLLVHSFQQLGRIDSLSEQISFLEEQLGSCSCKKDS
For B1, the binding entry in the assay with NOTCH1 (human) [1] and in the assay with NOTCH1 (human) [2] was “binds” throughout.

B2: EGFL7 protein (endogenous, in lysates of human AML cells: Kasumi-1, THP-1, primary AML patient blasts) (ligand)
chain: B1 chain
Regarding B2, the binding entry in the assay with NOTCH3 (human) is “binds”.

(Values after patent US20240043519A1.)
